Experimental data published in publication PMC9420869.
These are yes or no findings as the source states them, for the method shown. For part of these data: In cells and extracts the contact can be indirect. Some binding calls cover weakened binding; strength is not graded here. Values belong to the molecule of their own block, whether it stands above or below them.

Protein sequences, listed by entry. Tags and fused reporters are not part of them.
UniProt Q7Z434: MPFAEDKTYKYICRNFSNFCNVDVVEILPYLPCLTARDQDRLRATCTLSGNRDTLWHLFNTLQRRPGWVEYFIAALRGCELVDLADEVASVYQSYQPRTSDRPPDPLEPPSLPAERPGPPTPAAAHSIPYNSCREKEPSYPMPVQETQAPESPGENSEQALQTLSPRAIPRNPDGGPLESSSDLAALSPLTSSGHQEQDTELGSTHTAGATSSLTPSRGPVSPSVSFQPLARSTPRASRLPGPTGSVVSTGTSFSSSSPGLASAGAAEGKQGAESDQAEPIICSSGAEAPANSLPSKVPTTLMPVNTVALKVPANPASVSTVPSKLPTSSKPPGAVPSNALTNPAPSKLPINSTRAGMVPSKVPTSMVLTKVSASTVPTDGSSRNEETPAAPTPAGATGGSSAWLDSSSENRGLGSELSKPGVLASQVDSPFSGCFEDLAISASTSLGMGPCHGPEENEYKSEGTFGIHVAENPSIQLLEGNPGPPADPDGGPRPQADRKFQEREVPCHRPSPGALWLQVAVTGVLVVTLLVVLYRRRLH
UniProt P46379: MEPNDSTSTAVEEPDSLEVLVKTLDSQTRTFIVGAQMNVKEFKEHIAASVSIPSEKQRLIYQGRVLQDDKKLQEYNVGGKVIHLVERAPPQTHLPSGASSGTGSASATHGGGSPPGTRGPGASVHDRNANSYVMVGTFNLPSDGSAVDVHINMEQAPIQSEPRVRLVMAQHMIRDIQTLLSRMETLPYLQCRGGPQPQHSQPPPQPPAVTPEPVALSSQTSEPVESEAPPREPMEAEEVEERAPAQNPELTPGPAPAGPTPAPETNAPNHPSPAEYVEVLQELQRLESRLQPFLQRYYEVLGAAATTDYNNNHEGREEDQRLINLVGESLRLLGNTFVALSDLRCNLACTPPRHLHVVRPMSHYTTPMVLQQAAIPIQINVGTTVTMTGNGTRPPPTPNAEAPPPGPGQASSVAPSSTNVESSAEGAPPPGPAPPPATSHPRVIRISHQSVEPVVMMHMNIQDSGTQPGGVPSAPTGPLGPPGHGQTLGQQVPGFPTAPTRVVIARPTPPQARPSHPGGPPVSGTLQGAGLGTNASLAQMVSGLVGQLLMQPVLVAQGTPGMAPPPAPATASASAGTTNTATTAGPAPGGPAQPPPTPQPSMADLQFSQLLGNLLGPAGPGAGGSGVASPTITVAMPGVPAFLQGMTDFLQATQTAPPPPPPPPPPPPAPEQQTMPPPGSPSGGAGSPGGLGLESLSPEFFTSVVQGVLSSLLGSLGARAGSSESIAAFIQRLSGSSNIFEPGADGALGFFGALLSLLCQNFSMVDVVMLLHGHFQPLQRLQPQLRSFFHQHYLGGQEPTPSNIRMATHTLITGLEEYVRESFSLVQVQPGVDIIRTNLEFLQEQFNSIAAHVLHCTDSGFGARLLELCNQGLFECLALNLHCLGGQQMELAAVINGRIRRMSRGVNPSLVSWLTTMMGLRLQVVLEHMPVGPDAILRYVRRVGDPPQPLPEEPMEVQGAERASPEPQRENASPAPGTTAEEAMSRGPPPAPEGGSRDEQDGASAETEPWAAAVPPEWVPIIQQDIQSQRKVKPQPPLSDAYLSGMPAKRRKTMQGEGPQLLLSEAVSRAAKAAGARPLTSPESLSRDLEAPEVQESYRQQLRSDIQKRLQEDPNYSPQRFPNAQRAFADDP

Legend:
[1] = target: endogenous VISA (human cells) (human (endogenous in HEK 293 and HeLa)) (UniProt Q7Z434); assay: co-IP; endogenous co-immunoprecipitation from HEK 293 cells infected with SeV (MOI = 1) for indicated times or left untreated
[2] = target: VISA expressed from a mammalian expression plasmid (UniProt Q7Z434); assay: co-IP; HEK 293 cells transfected with the indicated plasmids, infected with SeV (MOI = 1) for 12 h or left untreated; co-immunoprecipitation and Western blot
[3] = target: T1, endogenous VISA (mouse cells) (mouse (endogenous in NIH3T3 and BMDMs)), Q8VCF0; assay: SDD-AGE; semi-denaturing detergent agarose gel electrophoresis of native lysates (1% agarose, SDS, 4°C) and immunoblot for VISA; cells untreated or SeV (MOI = 1) for 8 h; vector or Flag-BAG6 (HEK 293), wild type or BAG6-deficient (NIH3T3, BMDMs); settings: remark: other sources report otherwise
T1 chain: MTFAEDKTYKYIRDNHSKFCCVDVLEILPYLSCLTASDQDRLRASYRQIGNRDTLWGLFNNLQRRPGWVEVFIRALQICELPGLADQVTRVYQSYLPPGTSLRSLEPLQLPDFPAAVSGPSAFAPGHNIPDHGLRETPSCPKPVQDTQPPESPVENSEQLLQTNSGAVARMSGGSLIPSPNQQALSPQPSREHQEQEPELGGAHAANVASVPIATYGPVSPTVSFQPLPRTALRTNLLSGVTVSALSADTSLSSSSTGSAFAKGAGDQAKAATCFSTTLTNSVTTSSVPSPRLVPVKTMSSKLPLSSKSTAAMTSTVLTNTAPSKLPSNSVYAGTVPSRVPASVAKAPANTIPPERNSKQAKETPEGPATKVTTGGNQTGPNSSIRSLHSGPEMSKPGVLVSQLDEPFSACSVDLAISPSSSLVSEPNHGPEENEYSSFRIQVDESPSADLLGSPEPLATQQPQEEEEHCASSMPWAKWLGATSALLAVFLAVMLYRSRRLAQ

- binding [1]: binds
Molecule: endogenous BAG6 (from UniProt P46379 1-1132)

- binding [2]: binds
Molecule: human BAG6 expressed from pRK5-Flag/HA/Myc-hBAG6 (from UniProt P46379 1-1132)

- binding [3]: binds
B1: endogenous VISA (mouse cells), Q8VCF0 1-503 (protein)
chain: T1 chain
